Test results published in US20090062190A1, “Transcriptional Regulation of Cytokines by LITAF and STAT (6)(B)” (priority 2005, published 2009).
No constants are given. Whether binding was seen depends on the method and setting. Some entries that bind do so weakly or less than the wild type. For some of these results: Where a sequence is shown, tags or fusion partners need not be part of it.

B1: STAT6(B) clone from the human spleen pACT2-cDNA library (activation domain fusion) (protein, not shown: large carriers)
chain: MARRNPSPPLQRLRDWGHHHCPCHPGPGWLSTDGEHPAILCQRPVHSLTGGPNPGSCSAQKSLSQEAQGGGFPEPLQAWAGTGCSDSFLSPTSSLLPAALLSLPVCHPDVTPYFIAVLLLLPHDPCPPFPPPFLPNPRALHGCLFLLTTAEQMGKDGRGYVPATIKMTVERGVWWYGQWVGQGLVVLICRKEGWHQPLVSHMYLLPSSRDQPLPTPELQMPTMVPSYDLGMAPDSSMSMQLGPDMVPQVYPPHSHSIPPYQGLSPEESVNVLSAFQEPHLQMPPSLGQMSLSFDQPHPQGLLPCQPQEHAVSSPDPLLCSDVTTVEDSCLSQPVTAFPQGTWIGEDIFPPLLPPTEQDLTKLLLEGQGESGGGSLGAQPLLQPSHYGQSGISMSHMDLRANPSW
B2: STAT6(B) (Signal transducer and activator of transcription), full length, aa 1-404 (protein)
chain: B1 chain

Columns and labels:
[1] = target: pGBKLITAF bait (full length LITAF in pGBKT7); assay: yeast two-hybrid
[2] = target: pGBKLITAF bait (full length LITAF in pGBKT7); assay: yeast two-hybrid, LITAF bait against human spleen pACT2-cDNA library, high-stringency selection
[3] = target: LITAF (LPS-induced TNF-α factor), full length; assay: EMSA (figure legend)
[4] = target: LITAF (LPS-induced TNF-α factor), full length; assay: EMSA, extracts of co-transfected U2OS cells with labeled hTNF-α promoter DNA

Binder | binding [1] | binding [2] | binding [3] | binding [4]
B1 | binds | binds | – | –
B2 | – | – | binds | binds
